Assay results as given in paper PMC11582751.

Biological target: T1, SFB-tagged LATS2 (human) (UniProt Q9NRM7)
T1 sequence: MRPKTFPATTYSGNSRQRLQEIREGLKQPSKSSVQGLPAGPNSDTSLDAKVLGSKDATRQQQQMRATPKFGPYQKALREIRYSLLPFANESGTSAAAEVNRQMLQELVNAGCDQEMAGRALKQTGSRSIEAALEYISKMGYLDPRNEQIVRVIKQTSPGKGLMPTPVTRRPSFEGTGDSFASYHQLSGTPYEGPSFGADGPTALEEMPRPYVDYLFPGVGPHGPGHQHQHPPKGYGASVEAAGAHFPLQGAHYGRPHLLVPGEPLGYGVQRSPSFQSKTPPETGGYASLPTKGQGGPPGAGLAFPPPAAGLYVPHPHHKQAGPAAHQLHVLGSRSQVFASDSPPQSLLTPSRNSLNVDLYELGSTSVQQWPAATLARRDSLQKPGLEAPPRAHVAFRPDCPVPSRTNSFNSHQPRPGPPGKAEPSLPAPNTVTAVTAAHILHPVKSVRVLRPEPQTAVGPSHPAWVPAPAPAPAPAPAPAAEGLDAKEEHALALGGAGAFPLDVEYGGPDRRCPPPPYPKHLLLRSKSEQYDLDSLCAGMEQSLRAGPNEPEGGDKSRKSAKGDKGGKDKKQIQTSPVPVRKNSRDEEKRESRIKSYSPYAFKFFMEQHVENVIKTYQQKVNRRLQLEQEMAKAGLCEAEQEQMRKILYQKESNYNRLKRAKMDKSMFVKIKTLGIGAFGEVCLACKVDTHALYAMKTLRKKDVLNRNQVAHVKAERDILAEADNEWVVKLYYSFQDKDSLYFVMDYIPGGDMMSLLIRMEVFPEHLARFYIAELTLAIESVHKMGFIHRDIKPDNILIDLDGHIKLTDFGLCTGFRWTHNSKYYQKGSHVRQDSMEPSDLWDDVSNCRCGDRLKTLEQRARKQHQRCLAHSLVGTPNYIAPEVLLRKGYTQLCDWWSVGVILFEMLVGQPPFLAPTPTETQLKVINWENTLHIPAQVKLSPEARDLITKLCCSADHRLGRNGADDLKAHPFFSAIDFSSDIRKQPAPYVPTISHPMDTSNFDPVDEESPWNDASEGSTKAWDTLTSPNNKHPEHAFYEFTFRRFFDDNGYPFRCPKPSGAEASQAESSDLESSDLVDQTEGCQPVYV
Test: pull-down; HEK293T cells transfected with HA-MOB1 and SFB-tagged LATS1 or LATS2 (LOF mutants); pulldown with S protein beads

binding: binds
Substance: HA-MOB1 (human)

Results are given in words; binding and its absence hold for the method and conditions named. Binding seen in cells or lysates may run through a third protein. A result given as binding can be weak or reduced; the word gives no strength. Tags and fused reporters may be left off the sequences shown.
